The test system of this data set is cultured rat spinal cord neurons. Description: sptPALM diffusion of full-length mEos4b-GlyRβ variants. To be noted: for Deff, extrasynaptic (thresholded), Q1 (25% quartile) / Deff, extrasynaptic (thresholded), Q2 (median) / Deff, extrasynaptic (thresholded), Q3 (75% quartile): extrasynaptic trajectories above threshold 0.02 µm^2/s; for Explored area, extrasynaptic (thresholded), Q2 (median): extrasynaptic trajectories above threshold Deff 0.02 µm^2/s; for Deff, synaptic (thresholded), Q1 (25% quartile) / Deff, synaptic (thresholded), Q2 (median) / Deff, synaptic (thresholded), Q3 (75% quartile): synaptic trajectories above threshold 0.02 µm^2/s; for Explored area, synaptic (thresholded), Q2 (median): synaptic trajectories above threshold Deff 0.02 µm^2/s. The data set is classed as cell-based.

With “GlyRβ-D407P/F408G: mEos4b-tagged full-length GlyRβ with substitution D407P and F408G”, the “Deff, extrasynaptic (thresholded), Q1 (25% quartile)” value (“Deff, extrasynaptic … (25% quartile)” below) was determined as 0.04 µm^2 * s^−1; the “Deff, extrasynaptic (thresholded), Q2 (median)” value (shortened to “Deff, extrasynaptic … (median)”) was 0.09 µm^2 * s^−1; the “Deff, extrasynaptic (thresholded), Q3 (75% quartile)” value (shortened to “Deff, extrasynaptic … (75% quartile)”) came to 0.20 µm^2 * s^−1; the “Explored area, extrasynaptic (thresholded), Q2 (median)” value (“Explored area, extrasynaptic” for short) is 1.52 10^−3 µm^2. For the same substance, the “Deff, synaptic (thresholded), Q1 (25% quartile)” value (shortened to “Deff, synaptic … (25% quartile)”) was determined as 0.03 µm^2 * s^−1; the “Deff, synaptic (thresholded), Q2 (median)” value (“Deff, synaptic … (median)” below) is on record as 0.04 µm^2 * s^−1; the “Deff, synaptic (thresholded), Q3 (75% quartile)” value (“Deff, synaptic … (75% quartile)” below) is on record as 0.09 µm^2 * s^−1; the “Explored area, synaptic (thresholded), Q2 (median)” value (from here on “Explored area, synaptic”) is listed as 0.86 10^−3 µm^2.
Consider “GlyRβ-HI: mEos4b-tagged full-length GlyRβ with deletion Δ378–393”, for which the “Deff, extrasynaptic … (25% quartile)” value is listed as 0.03 µm^2 * s^−1; the “Deff, extrasynaptic … (median)” value was determined as 0.05 µm^2 * s^−1; the “Deff, extrasynaptic … (75% quartile)” value is recorded as 0.11 µm^2 * s^−1; the “Explored area, extrasynaptic” value is 0.96 10^−3 µm^2. Also, the “Deff, synaptic … (25% quartile)” value turned out to be 0.03 µm^2 * s^−1; the “Deff, synaptic … (median)” value came out at 0.04 µm^2 * s^−1; the “Deff, synaptic … (75% quartile)” value worked out at 0.07 µm^2 * s^−1; the “Explored area, synaptic” value is recorded as 0.77 10^−3 µm^2.
“GlyRβ-geph^−: mEos4b-tagged full-length GlyRβ with substitution F398A and I400A”: the “Deff, extrasynaptic … (25% quartile)” value was determined as 0.05 µm^2 * s^−1; the “Deff, extrasynaptic … (median)” value was 0.11 µm^2 * s^−1; the “Deff, extrasynaptic … (75% quartile)” value was determined as 0.22 µm^2 * s^−1; the “Explored area, extrasynaptic” value is 1.83 10^−3 µm^2. For the same substance, the “Deff, synaptic … (25% quartile)” value stood at 0.04 µm^2 * s^−1; the “Deff, synaptic … (median)” value is listed as 0.09 µm^2 * s^−1; the “Deff, synaptic … (75% quartile)” value amounted to 0.19 µm^2 * s^−1; the “Explored area, synaptic” value is reported as 1.51 10^−3 µm^2.
As for “GlyRβ-wt: mEos4b-tagged full-length human GlyRβ subunit”, the “Deff, extrasynaptic … (25% quartile)” value amounted to 0.03 µm^2 * s^−1; the “Deff, extrasynaptic … (median)” value was determined as 0.05 µm^2 * s^−1; the “Deff, extrasynaptic … (75% quartile)” value is 0.11 µm^2 * s^−1; the “Explored area, extrasynaptic” value is given as 0.91 10^−3 µm^2. Further, the “Deff, synaptic … (25% quartile)” value is on record as 0.03 µm^2 * s^−1; the “Deff, synaptic … (median)” value is 0.04 µm^2 * s^−1; the “Deff, synaptic … (75% quartile)” value is listed as 0.06 µm^2 * s^−1; the “Explored area, synaptic” value is 0.73 10^−3 µm^2.

The record behind these values is article PMC5818551, “Sequences Flanking the Gephyrin-Binding Site of GlyRβ Tune Receptor Stabilization at Synapses” (eNeuro, 2018).
